# Data from PubChem BioAssay AID1347426 (Functional Genomics Laboratory (NCATS/FGL), 2020).
# About 1,400 (4.5%) of roughly 31,000 sequences were called active.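 How the source made its calls: active means median seed-adjusted z-score above 1 or below -1; inactive means the rest.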 Some of the results follow.
# Experiment: Novel Modifiers of Survival Motor Neuron (SMN) Protein: Gene Identification via Genome-wide siRNA Screen;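 further: luminescence tracks full-length SMN protein made from the SMN2 reporter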
# Settings: HEK293T SMN2-luciferase reporter, siRNA knockdown, 72 h; actives lie on both sides
# Procedure, shortened: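 HEK293T cells stably carrying an SMN2 promoter/splicing cassette–luciferase reporter were reverse-transfected with 1 pmol siRNA per well (druggable-genome library, 3 siRNAs per gene) and grown 72 h at 37 °C. Luminescence, normalized to negative-control siRNA and log10-transformed, was scored as MAD.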
row,Sequence,median seed-adjusted z-score
1,CCAGACCACUUGCUAUGAATT against GATA6,inactive: 0.546
2,CCAUGAUGAGUCUUCUGAATT against LPAR1,inactive: 0.514
3,CUCCAAAUGUUGCGCUUGATT against PIK3CB,inactive: 0.0911
4,GCCGUGAUUUGGAAAGGAATT against CDC2L2,inactive: 0.153
5,GGAGUUCAUUCUCAACAGUTT against ACOX1,inactive: -0.897
6,CUCCCUCCCUCAAUAUUCATT against MDS1,inactive: 0.0345
7,CAAACGUAUUAGUUCAGCATT against KIF20B,inactive: 0
8,GCUCAGUGACUGUUCGAGATT against TP53RK,inactive: 0
9,AGAGAUACUUCUUAAAUCATT against YAP1,inactive: -0.247
10,GCAUCGAAGCCAUCAACGATT against GIPC3,inactive: -0.27
11,GAAAGAUCUUUGCGGAAAATT against TOPORS,inactive: 0.381
12,GAAUGGUCCUAUAUCUCAATT against LARP5,inactive: -0.144
13,GAAAGUCCUUCAACCAGAATT against ZBTB34,inactive: 0.0298
14,GGAUGUGACAUGUUCGACUTT against QTRT1,inactive: 0.0708
15,AGUUCAUCCGGGAUAAGUATT against PRPF31,inactive: -0.592
16,GCCGAGUGUUGAAUCAGUATT against CYP4X1,inactive: 0.546
17,CCGUGAACCUAUUCUCAGATT against MYBBP1A,inactive: 0.572
18,CCAUUGCUUUGACGAAAGATT against HERC2,inactive: 0.98
19,CGACUACUACUACCCUGAUTT against CCR8,inactive: -0.206
20,CCGUCUACGUGACCAUUGATT against ABCC1,inactive: 0
21,GAAAGAUGGUUCUACCACATT against ACAA1,inactive: 0.384
22,CGGUGCCUGUUGUGAAAUATT against MYO1C,inactive: 0.566

row,Sequence,median seed-adjusted z-score
1,GUAACUCCAUUGGACCACATT against NLRC3,inactive: 0.323
2,CAGUGCCUCUACUACGUGATT against PREB,inactive: 0.182
3,ACAUCGUGCUUUACAACAATT against CHRNB4,inactive: -0.317
4,GGCGAUUUGUAAACCGAAUTT against NEDD4,inactive: 0.454
5,CAGAUUUUGUGAUCGAAUATT against PDILT,inactive: -0.0994
6,CGAUCUUGAUAAAGCCUAUTT against MPP5,inactive: 0.429
7,CCGUUGCUCAGAUAACUCATT against PHC2,inactive: 0.177
8,GGACCUACGUUGCAGUUCATT against SUZ12,active: -1.65
9,GUAUGUCGGGUAUACCGUUTT against RAD54L2,inactive: -0.0646
10,GGUUCACUGUGAUAUACAATT against METTL7A,inactive: 0.278
11,CGACUGCAAGGACAAAUCUTT against LDLR,inactive: -0.142
12,AAUCCACAAGAGUUACUAATT against ZNF410,inactive: -0.135
13,GUCUCCUACUGCACCAGAATT against RTN4R,inactive: -0.536
14,GACCAAGGCUUACUGAAUATT against GYG2,inactive: 0.113
15,CAAUGGGACCAGUAUGUUATT against PCTP,inactive: 0.446
16,GGAUAAUGAGUCGGAAGUATT against CNTN4,inactive: -0.407
17,GCAUUUGACUUUUACUCAATT against PBLD,inactive: -0.0809
18,GACUGUUAAUUCUCGUAUATT against REV3L,inactive: 0.062
19,CUCGAGUUCCUAUAGCAAATT against UBE3C,inactive: 0.0341
20,GCUUCACCGUGGAAGGUAUTT against APOBEC3C,inactive: -0.103
21,GCGCAUAGCUCCGACUACATT against SPON2,inactive: 0
22,AGAUCGCCGUAGACAAGAATT against CPSF3L,inactive: -0.385

row,Sequence,median seed-adjusted z-score
1,GACAAGCCUUUGCACUCAATT against SLC25A12,inactive: -0.275
2,CCAUCUCACUUUAAUAAUATT against SNCA,inactive: 0.36
3,GAUUGCAGCCAAUCCCUUUTT against TBX6,inactive: 0.144
4,ACCUAGUGGUAAUGAUGUUTT against TERF1,inactive: 0.0114
5,GAUGAAGAAUGAUAAGUCATT against HNRNPC,active: -2.15
6,CAUUGGAAUUGUUGGUAAATT against PSMA1,inactive: -0.145
7,CUACCAUUGCAAAACGAAATT against MAP4K5,inactive: -0.309
8,GGUGAGCACGGUUUCCUGATT against ABHD9,inactive: 0.486
9,GGACAAUUGUCAUCGCAAATT against FAT3,inactive: 0.246
10,AGAUAACUUCCACGGCUUATT against LMAN2,inactive: -0.0921
11,CCUUCGAGGUGACUGGAUATT against SLC26A11,inactive: -0.507
12,GCACCAUAACAUUAGAGAATT against FABP9,inactive: 0.527
13,AGAUGAAUCUGGAAUCGGUTT against LCN1,inactive: 0.0607
14,GGCUCUAUAUGUGACCGAUTT against MEGF9,inactive: -0.0893
15,CGGUAAAUGUCACUCGUGATT against PRKG1,inactive: 0
16,GGAUUAUUGGGAUUGUAGATT against SEPHS1,inactive: -0.102
17,CGUUCUCGAUCAAAAGGCATT against SFRS6,inactive: 0.378
18,CAGGGCAAAUGAACAGGUUTT against TOMM40L,inactive: 0.12
19,CCAUGUCUACAAUAUAAAATT against DNASE2B,inactive: 0.86
20,GGAGAUACAUCGGUAGGUATT against IDUA,inactive: -0.353
21,AGCAGUUAAUAUCCAGUCATT against MS4A3,inactive: 0.189
22,CGUUCUGUACCUGGACCUATT against MFSD3,inactive: -0.0706

row,Sequence,median seed-adjusted z-score
1,CGGACUAUGUAGAUCUCUUTT against AKR1CL1,inactive: 0.488
2,GCUACAUCGAGGACCUUAATT against SERPINB1,inactive: 0.734
3,CUACUGAUUUAUCUAGAUATT against TNFRSF19,inactive: -0.672
4,CAACAUCUCGGGUAUCCUUTT against SLC34A1,inactive: 0.139
5,GGCUUAUGAUAACUCAUAUTT against SMC4,inactive: 0.646
6,GGUUUUAUGGAGAUACAAATT against UGT2A1,inactive: 0.213
7,CCUAAAGCCUGAAGAAGAATT against TXNDC2,active: -1.29
8,GCUCCACAACACCACUAAATT against TSSK4,inactive: -0.162
9,CCAGUUUCCUACAAGCGAATT against SPG7,inactive: -0.293
10,AGUCACUGCCAGUUAAUAATT against SSX5,inactive: -0.0517
11,GAUCGAGACAGUCAAGAUATT against MALT1,inactive: 0.442
12,CACUAUUUCGGAUUGGUCATT against USP46,inactive: -0.964
13,GGAUCGGAUUUACCCAUAATT against INPP5F,inactive: 0.118
14,GAUAGAGACUAGUAGAUCUTT against TDRD7,inactive: 0.11
15,GGACCUCCAUCAACUGAGATT against LRRC3B,inactive: 0
16,GGAUGUCUAAGCACCGUAATT against CTSH,inactive: -0.81
17,GGAUAUCACCGAAUGCAAUTT against BRPF3,inactive: -0.615
18,AGAUUGUUUUGAGAGGUGATT against SPCS3,inactive: 0.417
19,GCAUUGUCUCUCUUAUGUUTT against SYVN1,active: -1.41
20,GCAGAUAUGUCUAUGACAATT against TMPRSS2,inactive: 0.433
21,AGUCAGAAUGGGACUAACATT against NPFFR1,inactive: -0.613
22,GGUUUACUCUGAAUCCCAATT against MAP2K4,inactive: -0.366

row,Sequence,median seed-adjusted z-score
1,GGCUUUGACAAAUAGCCGATT against KCNH5,inactive: -0.827
2,GCUUACUAUUCACUAUGAATT against SNTB2,inactive: 0.268
3,CAUUGAAUCCUUUGACAAATT against GBA3,inactive: 0.246
4,GGUGCACUGUAUUAGCACATT against TFCP2,inactive: 0.14
5,GGAUCGAGAGUGUAAUUAATT against PAPD5,inactive: 0.325
6,GGAGCUACAAGAACCAGCATT against IL21R,inactive: 0.0068
7,GGAUCUCAUGCUAAGGUGATT against GIP,inactive: 0
8,GGCCCGAGCUGAUUGACUATT against ACTN1,inactive: 0
9,GGCACUAUGGUGACCAUUATT against PLXNA2,inactive: 0.308
10,CGGAUGAGGUGAUCCUGAATT against VAC14,inactive: 0.0825
11,GGCCUUCUGUAAACAGGAATT against NCAN,inactive: -0.391
12,GGAUGAUAGAGGAAUUGUATT against SKIV2L2,inactive: 0.642
13,GCCCUAGUGUUCCUGCUGATT against IL8RA,inactive: 0.316
14,GUGAUAAAGUAGUUCGAAATT against LMLN,inactive: 0
15,CAUCGUAACUUUAGAUGAATT against KCNIP1,inactive: -0.0767
16,UGUUCAUCUAGUUUCUAUUTT against MRGPRX1,inactive: -0.188
17,GCAGGAGCUUUACUAGUUUTT against RAB2A,inactive: -0.038
18,GCAUUGUCGUGGAAGUUCUTT against TMCO3,inactive: -0.441
19,GAGCAUAGUUUUACAGUCATT against PPM1L,inactive: 0.4
20,CACUCUGAGGAGUUACUAATT against ITGAE,inactive: -0.0378

# Taken from the results shown for reference:
row,Sequence,median seed-adjusted z-score
3,CAUUGAAUCCUUUGACAAATT against GBA3,inactive: 0.246
4,GGUGCACUGUAUUAGCACATT against TFCP2,inactive: 0.14
5,GGAUCGAGAGUGUAAUUAATT against PAPD5,inactive: 0.325
6,GGAGCUACAAGAACCAGCATT against IL21R,inactive: 0.0068
